From the supplement of paper PMC10849652
The list shows a part of the results.

The chains behind the UniProt entries cited, without tags or fusion partners. Where a name states a change or a piece, a line headed by the entry shows the natural chain unless it says otherwise.
UniProt Q9Y289: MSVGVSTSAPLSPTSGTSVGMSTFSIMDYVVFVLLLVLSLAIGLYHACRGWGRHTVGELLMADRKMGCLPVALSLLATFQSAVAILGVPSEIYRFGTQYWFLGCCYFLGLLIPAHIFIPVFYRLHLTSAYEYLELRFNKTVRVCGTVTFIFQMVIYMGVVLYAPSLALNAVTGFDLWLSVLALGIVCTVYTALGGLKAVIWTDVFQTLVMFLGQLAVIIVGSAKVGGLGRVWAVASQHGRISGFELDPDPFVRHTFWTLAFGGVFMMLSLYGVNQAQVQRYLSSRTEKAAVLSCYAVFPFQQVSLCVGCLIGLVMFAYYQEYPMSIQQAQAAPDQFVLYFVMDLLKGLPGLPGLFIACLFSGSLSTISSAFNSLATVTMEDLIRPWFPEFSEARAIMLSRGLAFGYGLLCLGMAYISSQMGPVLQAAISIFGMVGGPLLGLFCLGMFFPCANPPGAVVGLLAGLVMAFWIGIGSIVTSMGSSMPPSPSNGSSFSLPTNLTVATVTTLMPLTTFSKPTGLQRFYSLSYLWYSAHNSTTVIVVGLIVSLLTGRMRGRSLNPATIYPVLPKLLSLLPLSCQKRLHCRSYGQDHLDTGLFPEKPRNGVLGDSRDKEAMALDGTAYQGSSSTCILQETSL
UniProt Q9NP59: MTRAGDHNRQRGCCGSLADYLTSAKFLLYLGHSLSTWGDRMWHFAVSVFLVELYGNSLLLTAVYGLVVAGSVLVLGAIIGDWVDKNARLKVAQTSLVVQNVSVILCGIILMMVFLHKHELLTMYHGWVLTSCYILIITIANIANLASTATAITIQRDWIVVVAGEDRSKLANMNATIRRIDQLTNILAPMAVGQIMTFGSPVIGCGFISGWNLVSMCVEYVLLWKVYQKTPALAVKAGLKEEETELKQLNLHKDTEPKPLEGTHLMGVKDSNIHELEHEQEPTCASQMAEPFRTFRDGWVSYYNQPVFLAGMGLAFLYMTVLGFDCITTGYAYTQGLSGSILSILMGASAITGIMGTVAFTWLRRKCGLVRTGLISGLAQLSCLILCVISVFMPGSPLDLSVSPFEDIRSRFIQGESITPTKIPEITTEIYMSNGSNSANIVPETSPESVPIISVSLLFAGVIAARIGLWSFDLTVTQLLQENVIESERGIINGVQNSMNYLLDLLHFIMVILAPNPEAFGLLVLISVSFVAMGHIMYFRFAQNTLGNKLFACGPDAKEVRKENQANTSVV
UniProt Q13433: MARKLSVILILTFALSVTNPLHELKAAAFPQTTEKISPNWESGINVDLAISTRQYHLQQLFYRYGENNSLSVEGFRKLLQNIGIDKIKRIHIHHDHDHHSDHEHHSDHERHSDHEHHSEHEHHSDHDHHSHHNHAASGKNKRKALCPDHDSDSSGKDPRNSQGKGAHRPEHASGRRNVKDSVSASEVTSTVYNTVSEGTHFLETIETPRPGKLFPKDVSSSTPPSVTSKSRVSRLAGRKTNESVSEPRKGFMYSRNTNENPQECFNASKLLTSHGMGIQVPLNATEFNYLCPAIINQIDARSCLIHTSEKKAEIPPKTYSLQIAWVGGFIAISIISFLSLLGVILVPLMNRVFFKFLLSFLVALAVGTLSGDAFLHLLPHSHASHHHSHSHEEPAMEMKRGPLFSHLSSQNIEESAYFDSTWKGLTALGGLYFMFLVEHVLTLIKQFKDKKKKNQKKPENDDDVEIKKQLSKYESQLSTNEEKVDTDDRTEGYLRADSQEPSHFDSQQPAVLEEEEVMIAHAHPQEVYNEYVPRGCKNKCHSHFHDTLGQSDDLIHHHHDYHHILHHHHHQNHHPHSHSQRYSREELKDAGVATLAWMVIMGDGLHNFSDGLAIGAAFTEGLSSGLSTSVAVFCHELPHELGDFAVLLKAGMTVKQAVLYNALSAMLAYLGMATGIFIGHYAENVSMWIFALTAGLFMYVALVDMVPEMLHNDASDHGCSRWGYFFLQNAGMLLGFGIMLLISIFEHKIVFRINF
UniProt Q9UPY5: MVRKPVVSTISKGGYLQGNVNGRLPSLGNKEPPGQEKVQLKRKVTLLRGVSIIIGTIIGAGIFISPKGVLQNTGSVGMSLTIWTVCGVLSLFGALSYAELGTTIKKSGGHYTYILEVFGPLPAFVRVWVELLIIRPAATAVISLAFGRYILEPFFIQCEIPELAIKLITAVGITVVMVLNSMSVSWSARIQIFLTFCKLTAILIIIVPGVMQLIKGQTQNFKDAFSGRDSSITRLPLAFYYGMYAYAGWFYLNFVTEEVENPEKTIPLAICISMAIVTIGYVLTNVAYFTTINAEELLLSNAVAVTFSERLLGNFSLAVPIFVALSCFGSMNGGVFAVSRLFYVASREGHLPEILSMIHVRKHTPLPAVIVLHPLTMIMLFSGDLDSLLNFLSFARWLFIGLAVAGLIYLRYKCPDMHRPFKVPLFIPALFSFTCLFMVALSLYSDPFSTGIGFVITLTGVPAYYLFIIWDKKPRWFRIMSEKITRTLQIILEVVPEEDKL
UniProt Q9ULF5: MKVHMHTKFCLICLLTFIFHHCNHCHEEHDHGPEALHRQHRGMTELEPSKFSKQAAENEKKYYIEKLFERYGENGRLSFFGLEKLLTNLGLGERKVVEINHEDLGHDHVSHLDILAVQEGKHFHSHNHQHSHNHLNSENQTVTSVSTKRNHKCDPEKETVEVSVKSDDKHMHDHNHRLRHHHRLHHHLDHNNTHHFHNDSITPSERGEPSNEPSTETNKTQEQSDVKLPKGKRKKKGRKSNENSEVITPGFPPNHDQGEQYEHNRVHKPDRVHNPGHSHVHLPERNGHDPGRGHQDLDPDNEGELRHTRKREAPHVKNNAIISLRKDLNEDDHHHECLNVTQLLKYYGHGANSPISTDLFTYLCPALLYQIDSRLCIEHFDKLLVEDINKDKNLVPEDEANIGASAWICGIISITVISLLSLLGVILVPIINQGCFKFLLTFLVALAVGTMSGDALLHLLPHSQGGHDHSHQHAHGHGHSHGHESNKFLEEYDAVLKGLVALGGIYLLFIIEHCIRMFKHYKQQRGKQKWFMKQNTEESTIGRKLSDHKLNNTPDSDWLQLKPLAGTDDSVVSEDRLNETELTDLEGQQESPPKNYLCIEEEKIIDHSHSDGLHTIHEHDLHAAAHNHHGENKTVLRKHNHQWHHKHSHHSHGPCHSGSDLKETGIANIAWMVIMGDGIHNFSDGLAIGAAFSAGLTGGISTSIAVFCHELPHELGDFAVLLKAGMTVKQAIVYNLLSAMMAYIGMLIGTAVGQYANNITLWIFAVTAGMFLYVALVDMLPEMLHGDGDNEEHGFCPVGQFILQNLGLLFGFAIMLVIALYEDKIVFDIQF
UniProt Q8NEW0: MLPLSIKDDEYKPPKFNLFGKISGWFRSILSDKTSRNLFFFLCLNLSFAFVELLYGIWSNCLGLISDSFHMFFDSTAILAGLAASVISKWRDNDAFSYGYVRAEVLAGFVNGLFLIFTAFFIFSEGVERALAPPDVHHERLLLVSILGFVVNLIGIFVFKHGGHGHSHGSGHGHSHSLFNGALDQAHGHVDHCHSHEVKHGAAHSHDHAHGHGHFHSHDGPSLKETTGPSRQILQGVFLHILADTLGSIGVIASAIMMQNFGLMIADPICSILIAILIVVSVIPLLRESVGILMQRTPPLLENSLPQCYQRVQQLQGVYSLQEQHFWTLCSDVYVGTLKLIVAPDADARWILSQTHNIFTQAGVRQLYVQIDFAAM
UniProt Q6KCM7: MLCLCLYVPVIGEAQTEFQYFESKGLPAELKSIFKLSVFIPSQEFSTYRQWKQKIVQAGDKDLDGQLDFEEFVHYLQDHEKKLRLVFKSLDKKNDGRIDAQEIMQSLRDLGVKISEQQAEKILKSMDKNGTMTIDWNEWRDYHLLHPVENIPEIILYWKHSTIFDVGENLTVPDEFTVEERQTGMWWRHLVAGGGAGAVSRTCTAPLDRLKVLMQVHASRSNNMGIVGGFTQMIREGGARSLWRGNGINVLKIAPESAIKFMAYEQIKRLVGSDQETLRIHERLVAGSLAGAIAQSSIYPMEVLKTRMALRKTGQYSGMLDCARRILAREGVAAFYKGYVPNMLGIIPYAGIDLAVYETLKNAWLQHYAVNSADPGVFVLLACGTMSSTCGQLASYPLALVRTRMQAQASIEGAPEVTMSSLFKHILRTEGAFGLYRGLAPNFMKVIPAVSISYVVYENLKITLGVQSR
UniProt P78381: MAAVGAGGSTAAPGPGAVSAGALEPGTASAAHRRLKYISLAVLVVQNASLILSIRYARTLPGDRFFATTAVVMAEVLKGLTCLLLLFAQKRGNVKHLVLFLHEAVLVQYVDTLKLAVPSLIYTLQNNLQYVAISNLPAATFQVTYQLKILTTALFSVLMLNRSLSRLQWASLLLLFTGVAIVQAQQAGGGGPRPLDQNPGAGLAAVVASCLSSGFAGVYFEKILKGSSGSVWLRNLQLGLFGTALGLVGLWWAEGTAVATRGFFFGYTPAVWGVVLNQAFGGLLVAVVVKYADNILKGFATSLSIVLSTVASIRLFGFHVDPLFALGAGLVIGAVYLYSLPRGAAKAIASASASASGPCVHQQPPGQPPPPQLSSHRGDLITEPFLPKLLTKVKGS
UniProt Q9BQT8: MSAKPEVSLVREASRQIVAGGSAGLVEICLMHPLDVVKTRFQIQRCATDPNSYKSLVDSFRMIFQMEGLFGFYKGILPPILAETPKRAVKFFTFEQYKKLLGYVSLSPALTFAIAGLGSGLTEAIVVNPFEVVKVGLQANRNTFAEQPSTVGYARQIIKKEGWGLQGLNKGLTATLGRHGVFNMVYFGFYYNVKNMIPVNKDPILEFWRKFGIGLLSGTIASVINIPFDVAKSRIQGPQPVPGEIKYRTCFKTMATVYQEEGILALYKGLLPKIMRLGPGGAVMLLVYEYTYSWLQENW
UniProt P02730: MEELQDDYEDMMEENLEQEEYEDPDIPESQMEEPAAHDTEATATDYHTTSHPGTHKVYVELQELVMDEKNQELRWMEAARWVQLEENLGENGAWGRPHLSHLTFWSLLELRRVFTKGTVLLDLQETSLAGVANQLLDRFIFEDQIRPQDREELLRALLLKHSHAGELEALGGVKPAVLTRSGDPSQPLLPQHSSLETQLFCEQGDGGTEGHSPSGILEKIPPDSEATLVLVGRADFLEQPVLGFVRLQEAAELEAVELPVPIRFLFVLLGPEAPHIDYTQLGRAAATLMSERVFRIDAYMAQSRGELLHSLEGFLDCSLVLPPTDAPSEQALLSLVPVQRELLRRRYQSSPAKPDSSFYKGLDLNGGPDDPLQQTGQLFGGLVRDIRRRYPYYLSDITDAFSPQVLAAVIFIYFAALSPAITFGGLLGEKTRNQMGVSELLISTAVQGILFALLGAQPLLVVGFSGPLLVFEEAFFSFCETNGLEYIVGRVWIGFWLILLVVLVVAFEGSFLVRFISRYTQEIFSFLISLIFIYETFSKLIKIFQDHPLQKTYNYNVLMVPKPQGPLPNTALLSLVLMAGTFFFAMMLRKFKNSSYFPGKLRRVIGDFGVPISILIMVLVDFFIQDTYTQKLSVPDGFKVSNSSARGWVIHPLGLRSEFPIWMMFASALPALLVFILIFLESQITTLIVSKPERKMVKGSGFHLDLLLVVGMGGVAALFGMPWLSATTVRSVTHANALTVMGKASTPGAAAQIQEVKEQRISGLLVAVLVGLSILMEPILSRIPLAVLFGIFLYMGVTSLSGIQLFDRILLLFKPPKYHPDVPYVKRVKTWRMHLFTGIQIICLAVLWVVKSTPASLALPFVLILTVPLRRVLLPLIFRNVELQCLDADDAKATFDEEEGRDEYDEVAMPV
UniProt Q9H0C2: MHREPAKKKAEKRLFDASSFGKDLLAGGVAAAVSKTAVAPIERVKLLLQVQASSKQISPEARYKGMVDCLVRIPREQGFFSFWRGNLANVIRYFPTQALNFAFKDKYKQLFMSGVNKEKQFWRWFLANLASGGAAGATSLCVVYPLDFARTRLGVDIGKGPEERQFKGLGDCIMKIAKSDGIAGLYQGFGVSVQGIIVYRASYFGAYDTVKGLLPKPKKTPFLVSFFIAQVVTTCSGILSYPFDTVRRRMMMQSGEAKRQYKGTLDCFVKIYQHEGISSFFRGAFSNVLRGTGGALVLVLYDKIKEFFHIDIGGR
UniProt Q9Y619: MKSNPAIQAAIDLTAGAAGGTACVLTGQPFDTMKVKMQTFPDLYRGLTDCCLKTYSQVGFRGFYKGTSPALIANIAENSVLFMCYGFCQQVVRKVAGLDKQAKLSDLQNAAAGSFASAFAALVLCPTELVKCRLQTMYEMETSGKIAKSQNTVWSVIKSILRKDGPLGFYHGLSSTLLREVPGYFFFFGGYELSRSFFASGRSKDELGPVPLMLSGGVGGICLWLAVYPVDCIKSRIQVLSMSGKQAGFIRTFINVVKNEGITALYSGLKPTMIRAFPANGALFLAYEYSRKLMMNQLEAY

Assays:
Assay in all cases: log2 fold change, soluble protein after heating vs DMSO (PISA); higher = thermal stabilisation; K562 cells, 10 uM, 30 min; active = over 0.2 and 3.5 SD of the protein, either way, in both replicates (recomputed)
[1] = compound: COC1=CC=C(C=C1)CN2C=CC3=C2C=C(C=C3)C(=O)NO
In short: (§1)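 K562 cells at 2×10^6 cells/mL were given 10 μM compound for 30 min. Aliquots then went through 3 min of heating across 48°C-58°C, were pooled, and were extracted in PBS with 0.5% NP-40 at 4°C, and the supernatant after 21,000xg for 90 min was quantified by TMTpro 16plex LC-MS/MS with channel sums equalised. Thermal stability relative to control samples, from duplicates, is given as log2 fold change.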

filanesib = compound: CON(C)C(=O)N1N=C(c2cc(F)ccc2F)S[C@@]1(CCCN)c1ccccc1 [filanesib]
In short: as §1

zotarolimus = compound: CO[C@H]1C[C@@H]2CC[C@@H](C)[C@@](O)(O2)C(=O)C(=O)N2CCCC[C@H]2C(=O)O[C@H]([C@H](C)C[C@@H]2CC[C@H](n3cnnn3)[C@H](OC)C2)CC(=O)[C@H](C)/C=C(\C)[C@@H](O)[C@@H](OC)C(=O)[C@H](C)C[C@H](C)/C=C/C=C/C=C/1C [zotarolimus]
In short: as §1

idasanutlin = compound: COc1cc(C(=O)O)ccc1NC(=O)[C@@H]1N[C@@H](CC(C)(C)C)[C@](C#N)(c2ccc(Cl)cc2F)[C@H]1c1cccc(Cl)c1F [idasanutlin]
In short: as §1

alisertib = compound: COc1cc(Nc2ncc3c(n2)-c2ccc(Cl)cc2C(c2c(F)cccc2OC)=NC3)ccc1C(=O)O [alisertib]
In short: as §1

[2] = compound: COc1cc2nc(-c3cc(F)ccc3O)nc(N[C@@H]3CNC[C@H]3C(C)(C)O)c2cc1OC
In short: as §1

gefitinib = compound: COc1cc2ncnc(Nc3ccc(F)c(Cl)c3)c2cc1OCCCN1CCOCC1 [gefitinib]
In short: as §1

[3] = compound: COc1cccc2cc(-c3nc([C@H]4CC[C@H](C(=O)O)CC4)n4ncnc(N)c34)[nH]c12
In short: as §1

lapatinib = compound: CS(=O)(=O)CCNCc1ccc(-c2ccc3ncnc(Nc4ccc(OCc5cccc(F)c5)c(Cl)c4)c3c2)o1 [lapatinib]
In short: as §1

pictilisib = compound: CS(=O)(=O)N1CCN(Cc2cc3nc(-c4cccc5[nH]ncc45)nc(N4CCOCC4)c3s2)CC1 [pictilisib]
In short: as §1

Measured: log2 fold change

SLC25A24 (UniProt Q6NUK1)
inactive: [1] -0.019 | filanesib -0.053 | zotarolimus -0.025 | idasanutlin -0.012 | alisertib -0.04 | [2] 0.019 | gefitinib 0.013 | [3] 0.041 | lapatinib -0.023 | pictilisib -0.031

SLC5A6 (UniProt Q9Y289)
inactive: [1] -0.007 | filanesib 0.085 | zotarolimus 0.061 | idasanutlin -0.013 | alisertib 0.008 | [2] -0.004 | gefitinib 0.008 | [3] 0.028 | lapatinib -0.044 | pictilisib 0.087

SLC40A1 (UniProt Q9NP59)
inactive: [1] 0.032 | filanesib -0.098 | zotarolimus 0.009 | idasanutlin 0.035 | alisertib -0.05 | [2] 0.006 | gefitinib 0.024 | [3] 0.124 | lapatinib -0.146 | pictilisib 0.03

SLC38A10 (UniProt Q9HBR0)
inactive: [1] 0.088 | filanesib -0.09 | zotarolimus -0.009 | idasanutlin -0.004 | alisertib -0.001 | [2] -0.077 | gefitinib 0.058 | [3] 0.05 | lapatinib 0.119 | pictilisib 0.005

Two records drawn at random from those above:
SLC25A24 (UniProt Q6NUK1)
inactive: [1] -0.019 | filanesib -0.053 | zotarolimus -0.025 | idasanutlin -0.012 | alisertib -0.04 | [2] 0.019 | gefitinib 0.013 | [3] 0.041 | lapatinib -0.023 | pictilisib -0.031

SLC38A10 (UniProt Q9HBR0)
inactive: [1] 0.088 | filanesib -0.09 | zotarolimus -0.009 | idasanutlin -0.004 | alisertib -0.001 | [2] -0.077 | gefitinib 0.058 | [3] 0.05 | lapatinib 0.119 | pictilisib 0.005

More entries.

SLC27A1 (UniProt Q6PCB7)
inactive: [1] -0.263 | filanesib 0.118 | zotarolimus 0.064 | idasanutlin -0.038 | alisertib 0.004 | [2] 0.069 | gefitinib 0.016 | [3] -0.031 | lapatinib 0.014

SLC39A6 (UniProt Q13433)
inactive: [1] -0.098 | filanesib 0.127 | zotarolimus -0.049 | idasanutlin 0.1 | alisertib -0.088 | [2] 0.07 | gefitinib -0.001 | [3] 0.165 | lapatinib 0.021 | pictilisib 0.101

SLC7A11 (UniProt Q9UPY5)
inactive: [1] -0.008 | filanesib 0.083 | zotarolimus -0.015 | idasanutlin -0.003 | alisertib -0.056 | [2] 0.039 | gefitinib -0.061 | [3] 0.006 | lapatinib -0.067 | pictilisib 0.073

SLC29A1 isoform 2 (UniProt Q99808)
inactive: [1] 0.128 | filanesib 0.024 | zotarolimus 0.001 | idasanutlin -0.009 | alisertib -0.054 | [2] 0.092 | gefitinib 0.065 | [3] 0.118 | lapatinib 0.045 | pictilisib 0.092

SLC39A10 (UniProt Q9ULF5)
inactive: [1] -0.102 | filanesib 0.094 | zotarolimus -0.012 | idasanutlin 0.03 | alisertib -0.064 | [2] -0.021 | gefitinib 0.107 | [3] 0.015 | lapatinib -0.015 | pictilisib 0.02

SLC20A1 (UniProt Q8WUM9)
inactive: [1] -0.065 | filanesib 0.022 | zotarolimus -0.048 | idasanutlin 0.075 | alisertib -0.103 | [2] 0.105 | gefitinib 0.029 | [3] 0.007 | lapatinib -0.082 | pictilisib 0.086

SLC6A8 (UniProt P48029)
inactive: [1] 0.067 | filanesib -0.063 | zotarolimus -0.121 | idasanutlin -0.017 | alisertib 0.047 | [2] 0.197 | gefitinib -0.102 | [3] -0.113 | lapatinib -0.016 | pictilisib 0.115

SLC39A7 (UniProt Q92504)
inactive: [1] -0.004 | filanesib 0.027 | zotarolimus 0.009 | idasanutlin -0.01 | alisertib -0.033 | [2] -0.051 | gefitinib 0.031 | [3] 0.056 | lapatinib -0.071 | pictilisib 0.004

SLC29A2 (UniProt Q14542)
inactive: [1] 0.047 | filanesib 0.046 | zotarolimus -0.047 | idasanutlin 0.007 | alisertib -0.072 | [2] 0.065 | gefitinib 0.042 | [3] 0.076 | lapatinib -0.047 | pictilisib 0.121

SLC25A33 (UniProt Q9BSK2)
inactive: [1] 0.019 | filanesib -0.041 | zotarolimus -0.027 | idasanutlin -0.082 | alisertib -0.086 | [2] -0.048 | gefitinib -0.049 | [3] 0.134 | lapatinib 0.036 | pictilisib -0.03

SLC30A7 (UniProt Q8NEW0)
inactive: [1] -0.105 | filanesib -0.086 | zotarolimus -0.025 | idasanutlin -0.121 | alisertib -0.019 | [2] 0.088 | gefitinib 0.017 | [3] 0.184 | lapatinib -0.013 | pictilisib 0.028

SLC12A4 (UniProt Q9UP95)
inactive: [1] 0.116 | filanesib -0.066 | zotarolimus -0.012 | idasanutlin 0.021 | alisertib -0.032 | [2] -0.002 | gefitinib 0.017 | [3] 0.021 | lapatinib 0.002 | pictilisib 0.103

SLC38A1 (UniProt Q9H2H9)
inactive: [1] -0.081 | filanesib -0.037 | zotarolimus -0.036 | idasanutlin -0.096 | alisertib -0.034 | [2] -0.09 | gefitinib -0.005 | [3] 0.019 | lapatinib -0.001 | pictilisib -0.064

SLC25A25 isoform 3 (UniProt Q6KCM7)
inactive: [1] 0.001 | filanesib -0.061 | zotarolimus -0.054 | idasanutlin -0.03 | alisertib -0.093 | [2] -0.037 | gefitinib -0.004 | [3] 0.053 | lapatinib 0.01 | pictilisib -0.012

SLC35A2 isoform 4 (UniProt P78381)
inactive: [1] -0.012 | filanesib -0.017 | zotarolimus 0.005 | idasanutlin -0.227 | alisertib 0.061 | [2] -0.019 | gefitinib 0.014 | [3] 0.002 | lapatinib -0.048 | pictilisib 0.08

SLC20A2 (UniProt Q08357)
inactive: [1] -0.016 | filanesib 0.003 | zotarolimus -0.017 | idasanutlin -0.032 | alisertib 0.09 | [2] 0.027 | gefitinib 0.009 | [3] 0.079 | lapatinib -0.011 | pictilisib 0.135

SLC5A3 (UniProt P53794)
inactive: [1] 0.05 | filanesib 0.037 | zotarolimus -0.03 | idasanutlin 0.007 | alisertib -0.122 | [2] 0.042 | gefitinib 0.035 | [3] 0.116 | lapatinib -0.105 | pictilisib 0.017

SLC12A9 (UniProt Q9BXP2)
inactive: [1] -0.022 | filanesib -0.093 | zotarolimus 0.091 | idasanutlin 0.044 | alisertib -0.106 | [2] 0.049 | gefitinib -0.151 | [3] 0.023 | lapatinib 0.075 | pictilisib -0.121

SLC7A1 (UniProt P30825)
inactive: [1] -0.056 | filanesib 0.002 | zotarolimus -0.049 | idasanutlin -0.005 | alisertib -0.041 | [2] -0.009 | gefitinib 0.011 | [3] 0.098 | lapatinib -0.002 | pictilisib 0.047

SLC1A5 (UniProt Q15758)
inactive: [1] -0.048 | filanesib 0.071 | zotarolimus -0.052 | idasanutlin 0.031 | alisertib -0.126 | [2] 0.058 | gefitinib 0.023 | [3] 0.095 | lapatinib -0.01 | pictilisib 0.024

SLC25A21 (UniProt Q9BQT8)
inactive: [1] -0.062 | filanesib -0.076 | zotarolimus -0.055 | idasanutlin -0.007 | alisertib -0.059 | [2] -0.004 | gefitinib 0.017 | [3] 0.101 | lapatinib -0.016 | pictilisib 0.001

SLC6A6 (UniProt P31641)
inactive: [1] -0.1 | filanesib -0.013 | zotarolimus -0.017 | idasanutlin -0.066 | alisertib -0.031 | [2] -0.066 | gefitinib -0.044 | [3] 0.041 | lapatinib -0.012 | pictilisib 0.072

SLC4A1 (UniProt P02730)
inactive: [1] -0.051 | filanesib 0.001 | zotarolimus -0.03 | idasanutlin 0.051 | alisertib -0.114 | [2] 0.149 | gefitinib 0.021 | [3] 0.053 | lapatinib 0.003 | pictilisib 0.028

SLC25A31 (UniProt Q9H0C2)
inactive: [1] 0.055 | filanesib -0.101 | zotarolimus -0.022 | idasanutlin -0.046 | alisertib 0.002 | [2] -0.009 | gefitinib 0.008 | [3] 0.053 | lapatinib 0.036 | pictilisib 0.002

SLC25A15 (UniProt Q9Y619)
inactive: [1] -0.075 | filanesib -0.041 | zotarolimus -0.009 | idasanutlin 0.001 | alisertib -0.013 | [2] -0.026 | gefitinib 0.009 | [3] 0.045 | lapatinib 0.063 | pictilisib 0.004
